Experimental data reported in PubChem BioAssay AID2685 (National Center for Advancing Translational Sciences (NCATS), 2010).
Some of the results follow. Further columns of the screen follow, without active or inactive calls. Most of these compounds were active or inconclusive in the main read-out, so they are no random draw. Potencies come from curve fits of mixed quality, noted in brackets.

Assay: qHTS Assay for Lipid Storage Modulators in Drosophila S3 Cells;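 as to cell number change: cells counted by Cell Tracker Red CMTPX staining in the red channel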
Details: BODIPY lipid droplet fluorescence, 18-24 h; for cell number change: measured here: cell count max response, cells fed with added oleic acid
How it was run: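 Laser-scanning cytometry quantifies lipid droplet accumulation (500–530 nm total intensity; droplet/cell object ratio) in oleic acid-fed (400 uM added) Drosophila S3 cells treated with a concentration series. 20 uM Triacsin C defined 100% inhibition.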

[1] = measured here: lipid fluorescence (Fed channel) AC50, cells fed with added oleic acid
[2] = measured here: cell number channel AC50, cells fed with added oleic acid

| SMILES | cell number change [%] | AC50 [1] | AC50 [2] |
| --- | --- | --- | --- |
| O=C(CCC(=O)N1CCN(c2ccc(C(F)(F)F)cn2)CC1)c1cccs1 | 13.7 | 6.51 µM [rising, single point] | – |
| COC(=O)c1ccc(N2C(=O)CC(N3CCC(O)(c4ccc(Br)cc4)CC3)C2=O)cc1 (stereo not drawn) | 23.3 | – | – |
| COc1ccc(CCNC(=O)c2nnn(-c3cccc(C)c3)c2N)cc1OC | 48.2 | – | 2.59 µM [rising, full curve] |
| CCN(c1ccccc1)S(=O)(=O)c1ccc(C(=O)Nc2nccs2)cc1 | 83.9 | 29.1 µM [rising, single point] | 20.6 µM [rising, single point] |
| Cc1ccnc(NC(=O)c2ccccc2NC(=O)c2ccc(Cl)cc2Cl)c1 | -16.2 | 29.1 µM [falling, single point] | – |
| O=C1CC(c2ccc(Cl)cc2)CC(O)=C1C=NCCN1CCNCC1 (stereo not drawn) | 16.4 | 29.1 µM [rising, single point] | – |
| CC(C)CC(=O)N=Nc1c(O)[nH]c2ccccc12 | 9.38 | 1.64 µM [rising, single point] | 2.59 µM [rising, single point] |
| C/C(=N\S(=O)(=O)c1ccc(C)cc1)NC(=S)Nc1ccccc1 | 4.19 | – | – |
| CCc1ccc(C(=O)NNC(=O)C2CSC3(C)CCC(=O)N23)cc1 (stereo not drawn) | -24.9 | – | 0.0731 µM [falling, full curve, poor fit] |
| COc1ccc(C(=O)Nc2ccccn2)cc1S(=O)(=O)N1CCOCC1 | 2.27 | – | 0.13 µM [rising, full curve, poor fit] |
| CCCCOc1ccc(NC(=O)CSc2cccc3cccnc23)cc1 | 0.563 | – | – |
| CC(C)c1ccc(C(CC(=O)O)NC(=O)c2cccs2)cc1 (stereo not drawn) | -4.41 | 0.103 µM [falling, full curve, poor fit] | – |
| Cc1ccc(NS(=O)(=O)c2cccc(C(=O)NNC(=O)NC3CCCCC3)c2)c(C)c1 | – | 6.51 µM [falling, single point] | – |
| NS(=O)(=O)c1ccc2nc(NC(=O)c3ccc4c(c3)OCCO4)sc2c1 | -19.1 | 29.1 µM [rising, single point] | – |
| CC(CNC(=O)CCn1ccc2cc(S(=O)(=O)N3CCCC3)ccc21)c1ccccc1 (stereo not drawn) | – | 3.26 µM [rising, partial curve] | – |
| COc1ccc(CNC(=O)CN2CCC(NC(=O)c3ccc(OC)cc3)CC2)cc1 | -0.806 | 0.82 µM [falling, partial curve, poor fit] | – |
| O=C1CC(N2CCN(c3ccc(F)cc3)CC2)C(=O)N1Cc1ccc(N2CCCC2=O)cc1 (stereo not drawn) | -25.6 | 0.184 µM [falling, full curve, poor fit] | – |
| CCOc1ccc(C(=O)COC(=O)c2cc(=O)[nH]c3ccccc23)cc1 | -7.7 | – | – |
| CCc1ccccc1NC(=O)CN(C)C(=O)COC(=O)c1c(Cl)cccc1Cl | -9.39 | – | – |
| CCOC(=O)C1(CCCc2ccccc2)CCN(C(=O)CCN2CCCCC2=O)CC1 | -19 | 16.4 µM [falling, partial curve, poor fit] | – |
| COc1ccc(/C=N/NC(=S)Nc2ccccc2[N+](=O)[O-])cc1O | -34.9 | 23.1 µM [falling, partial curve, poor fit] | 29.1 µM [falling, partial curve] |

| SMILES | cell number change [%] | AC50 [1] | AC50 [2] |
| --- | --- | --- | --- |
| Cc1ccc(CN2CCC(CO)(CC3CCCCO3)CC2)o1 (stereo not drawn) | -12.9 | – | – |
| CC1(C)CC(=O)c2cnc(NC(=O)CCc3ccccc3)nc2C1 | 2.97 | 6.51 µM [rising, partial curve, poor fit] | – |
| O=C(CSc1nc2cc(Cl)ccc2s1)c1cc2ccccc2o1 | 49.5 | – | 0.259 µM [rising, partial curve] |
| Cc1ccc(-n2nnnc2SCC(=O)Nc2cccnc2Cl)cc1 | 2.37 | 32.6 µM [falling, single point] | – |
| O=C(Nc1ccccc1)N1CCC(=S)Nc2ccccc21 | -24.5 | 13 µM [falling, partial curve, poor fit] | – |
| O=C(COc1cccc(Oc2ccccc2)c1)Nc1ncccn1 | – | – | 4.61 µM [falling, single point] |
| CCOCCCNC(=O)C(c1ccc(Cl)cc1)N1CCN(C(=O)c2ccco2)CC1 (stereo not drawn) | – | 5.17 µM [falling, full curve] | – |
| Clc1nc(-c2n[nH]nc2Cl)n[nH]1 | -0.501 | 16.4 µM [falling, single point] | – |
| Cc1occc1-c1n[nH]c(=S)n1-c1ccccc1 | -3.7 | 0.461 µM [falling, single point] | – |
| CCOC(=O)C(NC(=O)Nc1ccc(C(N)=O)cc1)(c1ccccc1)C(F)(F)F (stereo not drawn) | -1.98 | 18.4 µM [falling, single point] | – |
| Cc1cccc(-c2nc(CS(=O)CC(=O)N3CCCCC3)c(C)o2)c1 (stereo not drawn) | 32.8 | 2.31 µM [rising, full curve, poor fit] | 25.9 µM [rising, single point] |
| CN(C)CCCN1C(=O)c2cccc3cccc(c23)C1=O | -0.787 | 29.1 µM [rising, single point] | – |
| Cc1ccccc1C#N | -4.66 | 2.59 µM [rising, single point] | – |
| Cc1cc(SCc2ccc(Cl)cc2)nc(=O)[nH]1 | -4.82 | 6.51 µM [rising, single point] | – |
| COC(=O)Nc1ccc(S(=O)(=O)N2CCCC(C(=O)O)C2)cc1 (stereo not drawn) | -53.4 | – | – |
| CCOc1ccc(NC(=O)CN2C(=O)CSc3ccc(S(=O)(=O)N4CCCC4)cc32)cc1 | 38 | 23.1 µM [rising, partial curve] | 29.1 µM [rising, single point] |
| O=[N+]([O-])c1ccccc1S(=O)(=O)N1CCN(c2ccc(F)cc2)CC1 | -5.22 | – | – |
| Cc1ccccc1NC(=O)CN1C(=O)COc2ccc(Cl)cc21 | 1.01 | – | – |
| O=CN1CCN(S(=O)(=O)c2ccc(Cl)c(C(=O)O)c2)CC1 | 9.9 | 4.11 µM [rising, single point] | – |
| COc1ccc(C(=O)NCCN2CCN(C(=O)c3ccc(OC)cc3)CC2)cc1 | 43.1 | 29.1 µM [rising, single point] | 29.1 µM [rising, single point] |
| CCc1ccccc1NC(=O)[C@@H]1CCC(=O)N1C1OC(=O)c2ccccc21 (stereo partly drawn) | 12.3 | – | – |

Record cards, as listed above:
`Cc1ccc(CN2CCC(CO)(CC3CCCCO3)CC2)o1` (stereo not drawn) in the list: cell number change [%]: -12.9
`Cc1cc(SCc2ccc(Cl)cc2)nc(=O)[nH]1` in the list: cell number change [%]: -4.82; AC50 [1]: 6.51 µM [rising, single point]
`Cc1occc1-c1n[nH]c(=S)n1-c1ccccc1` in the list: cell number change [%]: -3.7; AC50 [1]: 0.461 µM [falling, single point]

Next records:

| SMILES | cell number change [%] | AC50 [1] | AC50 [2] |
| --- | --- | --- | --- |
| COc1ccc(OCc2cc(C(=O)NCC(C)(C)N3CCOCC3)no2)c(Cl)c1 | 11.1 | 4.61 µM [rising, partial curve, poor fit] | 2.31 µM [rising, partial curve, poor fit] |
| CCCCN1C(=S)SC(C)(C)C1/[N+]([O-])=C/c1cccnc1 (stereo not drawn) | -26.2 | – | 0.164 µM [falling, full curve, poor fit] |
| COc1ccccc1NC(=O)Cn1c(CN2CCCCC2)nc2ccccc2c1=O | 11.1 | – | – |
| COc1ccc(NC(=O)CN(C)S(=O)(=O)c2cccc3nsnc23)cc1OC | 10.2 | 14.6 µM [rising, partial curve] | – |
| Cc1cccc(C(=O)N2CC3(C)CC2CC(C)(C)C3)c1 (stereo not drawn) | -19.3 | – | – |
| COc1ccc(CNC(=O)CN(Cc2ccco2)C(=O)CCC(=O)Nc2ccccn2)cc1 | 15.3 | 6.51 µM [rising, partial curve, poor fit] | – |
| CC(=O)c1cccc(CN2CCC(n3nccc3NC(=O)c3ccc4c(c3)OCO4)CC2)c1 | -36.3 | – | – |
| O=C(Nc1cc(-c2nc3ncccc3o2)ccc1Cl)c1ccc2c(c1)OCO2 | 4.46 | 0.00411 µM [rising, full curve, poor fit] | – |
| CC(=O)c1c(C)[nH]c(C(=O)N2CC(C)CC(C)C2)c1C (stereo not drawn) | 17 | – | – |
| O=C1CCCC2=C1C(c1ccccc1)CC(=O)N2c1ccc(F)cc1F (stereo not drawn) | -24.2 | – | 0.116 µM [falling, full curve, poor fit] |
| CCOC(=O)CCCNC(=O)COC(=O)c1cccc(C)c1O | 7.52 | 10.3 µM [rising, partial curve] | – |
| Nc1c(C(=O)c2ccccc2)oc2ccc(Br)cc12 | -51 | – | 25.9 µM [falling, partial curve, poor fit] |
| N#Cc1cn(Cc2ccncc2)c(=O)[nH]c1=O | 12.8 | – | – |
| CCc1nnc(NC(=O)CSc2nnc(-c3ccoc3C)n2-c2cccc(C)c2)s1 | 58.9 | 5.8 µM [rising, full curve] | 18.4 µM [rising, single point] |
| CCCCCc1c(C)nc(NCc2ccccc2)[nH]c1=O | -48.7 | 5.17 µM [falling, full curve] | 5.17 µM [falling, full curve] |
| N=C(c1ccc([N+](=O)[O-])cc1)N1CCCCC1 | 34.6 | – | 29.1 µM [rising, single point] |
| COc1ccc(CNc2oc(COc3ccccc3Cl)nc2C#N)cc1 | 80.8 | – | – |
| Cc1cc(NC(=O)Cn2cnc3c(nnn3-c3ccc(C)c(Cl)c3)c2=O)no1 | -32.9 | 1.16 µM [rising, single point] | 7.31 µM [falling, single point] |
| O=C(COc1ccccc1)Nc1ccccc1N1CCCCC1 | -37.1 | 29.1 µM [falling, single point] | 18.4 µM [falling, single point] |
| CCC(=O)Nc1c(S(=O)(=O)c2ccccc2)c2nc3ccccc3nc2n1C(C)c1ccccc1 (stereo not drawn) | -35.9 | 29.1 µM [falling, single point] | 29.1 µM [falling, single point] |
| O=C(Nc1cccnc1)c1c(F)c(F)c(F)c(F)c1F | -14 | 29.1 µM [falling, single point] | – |
